Drawing on publication doi:10.1101/2023.06.17.545446, this text covers binding for one substance.

No constants are given. Whether binding was seen depends on the method and setting. Some entries that bind do so weakly or less than the wild type.

This experiment concerns the target multidrug efflux transporter AcrB (E. coli) (UniProt P31224). In words: cryo-EM structure.

“multidrug efflux transporter AcrB (from UniProt P31224 1-1049)”: the binding result is given as “binds”.
